Measured values as given in publication doi:10.64898/2025.12.11.692727.
No constants are given. Whether binding was seen depends on the method and setting. For some assays here: In cells and extracts the contact can be indirect. Some entries that bind do so weakly or less than the wild type.

Sequences of proteins named here, by UniProt entry; tags and fusion partners are left off. A change or cut given only in a name is not applied to a line headed by its entry.
UniProt P09874: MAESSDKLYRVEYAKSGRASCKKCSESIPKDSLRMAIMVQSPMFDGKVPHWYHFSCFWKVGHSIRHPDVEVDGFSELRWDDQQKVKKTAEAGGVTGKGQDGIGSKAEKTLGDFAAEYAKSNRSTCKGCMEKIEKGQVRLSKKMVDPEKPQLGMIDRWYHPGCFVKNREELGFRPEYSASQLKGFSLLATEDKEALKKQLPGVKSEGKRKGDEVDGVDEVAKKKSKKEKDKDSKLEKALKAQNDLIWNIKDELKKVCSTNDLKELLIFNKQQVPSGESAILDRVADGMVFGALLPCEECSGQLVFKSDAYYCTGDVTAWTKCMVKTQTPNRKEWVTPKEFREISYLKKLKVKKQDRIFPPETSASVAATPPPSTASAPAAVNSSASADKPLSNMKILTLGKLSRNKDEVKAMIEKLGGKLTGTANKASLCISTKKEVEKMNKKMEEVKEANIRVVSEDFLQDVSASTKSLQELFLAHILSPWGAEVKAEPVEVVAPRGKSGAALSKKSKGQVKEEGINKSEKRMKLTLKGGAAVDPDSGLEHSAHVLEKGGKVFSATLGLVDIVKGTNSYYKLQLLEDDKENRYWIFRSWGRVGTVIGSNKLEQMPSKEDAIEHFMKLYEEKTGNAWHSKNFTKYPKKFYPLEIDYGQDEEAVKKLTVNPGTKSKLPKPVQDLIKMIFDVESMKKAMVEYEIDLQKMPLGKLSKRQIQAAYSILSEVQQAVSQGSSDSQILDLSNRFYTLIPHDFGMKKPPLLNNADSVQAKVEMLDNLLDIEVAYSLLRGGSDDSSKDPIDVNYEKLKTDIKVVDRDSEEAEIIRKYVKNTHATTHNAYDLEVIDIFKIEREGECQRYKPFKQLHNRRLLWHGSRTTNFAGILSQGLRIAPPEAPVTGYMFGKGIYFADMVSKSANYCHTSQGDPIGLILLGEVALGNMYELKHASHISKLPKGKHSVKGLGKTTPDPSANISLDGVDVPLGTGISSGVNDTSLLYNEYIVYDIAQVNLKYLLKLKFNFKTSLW
UniProt Q9Y6I9: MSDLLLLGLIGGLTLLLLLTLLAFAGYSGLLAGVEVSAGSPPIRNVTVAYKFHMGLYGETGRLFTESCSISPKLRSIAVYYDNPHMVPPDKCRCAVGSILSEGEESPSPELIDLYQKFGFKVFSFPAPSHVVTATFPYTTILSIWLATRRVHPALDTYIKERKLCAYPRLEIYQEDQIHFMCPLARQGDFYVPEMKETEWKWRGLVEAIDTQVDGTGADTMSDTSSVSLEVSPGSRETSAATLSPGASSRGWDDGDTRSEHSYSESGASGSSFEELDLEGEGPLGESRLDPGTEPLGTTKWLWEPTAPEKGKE

Key:
[1] = target: PARP1, recombinant, full length (printed as GFP-PARP1 in the results) (UniProt P09874); assay: HDX-MS
[2] = target: PARP1, recombinant, full length (printed as GFP-PARP1 in the results) (UniProt P09874); assay: pull-down
[3] = target: PARP1-GFP (UniProt P09874); assay: co-IP
[4] = target: PARP1-GFP (UniProt P09874); assay: proximity ligation

| binding [2] | binding [3] | Substance | also measured |
| --- | --- | --- | --- |
| binds | – | TEX264 (34-313), recombinant (from UniProt Q9Y6I9 34-313) (domain or fragment) | binding [1]: binds |
| – | binds | TEX264 (endogenous) (from UniProt Q9Y6I9 1-313) | – |
| no binding (tested: 2.5 µM) | – | TEX264 fragment containing only the GyrI-like domain (34-185), recombinant (from UniProt Q9Y6I9 34-185) (domain or fragment) | – |
| – | no binding | TEX264-272 (variant lacking the C-terminal region beyond S272) (from UniProt Q9Y6I9 1-272) (domain or fragment) | – |
| – | binds | TEX264^WT-V5 (from UniProt Q9Y6I9 1-313) | binding [4]: binds |
| – | binds | p97/VCP (endogenous) (from UniProt P55072 1-806) | – |
